From patent publication US20200332006A1 (ULTRAHUMAN NINE, published 2020)
No constants are given. Whether binding was seen depends on the method and setting. Some binding calls cover weakened binding; strength is not graded here.

By UniProt entry, the sequences of proteins in these tests, tags left out. Where a name states a change or a piece, a line headed by the entry shows the natural chain unless it says otherwise.
UniProt Q15116: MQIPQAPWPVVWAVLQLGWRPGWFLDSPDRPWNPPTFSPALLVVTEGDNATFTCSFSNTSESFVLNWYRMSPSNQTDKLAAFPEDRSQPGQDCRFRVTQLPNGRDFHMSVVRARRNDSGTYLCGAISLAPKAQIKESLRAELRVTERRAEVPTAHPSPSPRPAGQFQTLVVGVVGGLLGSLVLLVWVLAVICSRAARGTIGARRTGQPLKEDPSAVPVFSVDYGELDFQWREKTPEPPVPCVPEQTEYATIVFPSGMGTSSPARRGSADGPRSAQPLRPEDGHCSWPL

T1: human LSAMP, expressed on HEK293 cells (human, UniProt Q13449 29-315)
T1 construct: also called BC033803
T1 sequence: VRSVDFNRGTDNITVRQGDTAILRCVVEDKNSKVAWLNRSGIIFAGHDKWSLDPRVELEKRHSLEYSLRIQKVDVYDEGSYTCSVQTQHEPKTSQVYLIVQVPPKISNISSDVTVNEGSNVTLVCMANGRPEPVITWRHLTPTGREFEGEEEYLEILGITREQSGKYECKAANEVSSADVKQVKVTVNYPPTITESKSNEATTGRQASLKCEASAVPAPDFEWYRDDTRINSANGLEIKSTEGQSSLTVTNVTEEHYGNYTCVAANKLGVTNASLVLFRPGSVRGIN

T2: human BTN2A1, expressed on HEK293 cells (human, UniProt Q7KYR7 29-527)
T2 construct: also called NM_007049
T2 sequence: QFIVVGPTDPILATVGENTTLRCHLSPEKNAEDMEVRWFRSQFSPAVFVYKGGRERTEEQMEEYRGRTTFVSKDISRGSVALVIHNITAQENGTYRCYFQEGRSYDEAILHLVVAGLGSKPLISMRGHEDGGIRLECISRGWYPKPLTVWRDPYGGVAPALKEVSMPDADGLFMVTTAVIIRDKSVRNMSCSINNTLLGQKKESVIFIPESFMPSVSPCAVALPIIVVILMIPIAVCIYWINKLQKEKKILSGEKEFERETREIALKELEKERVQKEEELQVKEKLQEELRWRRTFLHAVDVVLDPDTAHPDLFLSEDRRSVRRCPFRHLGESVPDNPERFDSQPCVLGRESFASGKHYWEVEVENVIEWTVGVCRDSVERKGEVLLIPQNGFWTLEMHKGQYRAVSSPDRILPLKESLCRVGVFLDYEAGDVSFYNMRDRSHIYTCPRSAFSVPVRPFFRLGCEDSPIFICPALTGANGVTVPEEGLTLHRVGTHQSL


Experiments:
[1] = target: human PD1 human Fc tagged recombinant protein (human) (UniProt Q15116); assay: direct titration ELISA, IgG1null on coated PD1-Fc
[2] = target: cynomolgus monkey PD1 human Fc tagged recombinant protein (cynomolgus monkey); assay: direct titration ELISA, IgG1null on coated PD1-Fc
[3] = target: human PD1, membrane-expressed on transfected cells (CHO-K1 stable line, HEK293 transfectants, PD1 effector cells, T cells) (human) (UniProt Q15116); assay: flow cytometry on live PD1-transfected HEK293 cells, 2 ug/ml IgG
[4] = target: human PD1, membrane-expressed on transfected cells (CHO-K1 stable line, HEK293 transfectants, PD1 effector cells, T cells) (human) (UniProt Q15116); assay: Retrogenix cell microarray, fixed HEK293 cells, 2 ug/ml IgG
[5] = target: T1, human LSAMP, expressed on HEK293 cells; assay: as above
[6] = target: T1, human LSAMP, expressed on HEK293 cells; assay: flow cytometry on live LSAMP-transfected HEK293 cells, 2 ug/ml IgG
[7] = target: T1, human LSAMP, expressed on HEK293 cells; assay: flow cytometry on live transfected HEK293 cells
Experimental: (§1) FIG. 11. […] Analyses of binding specificity were performed on HEK293 cells transiently transfected with plasmids encoding either human PD1, human BTN2A1, human LSAMP, human CD20 or ZS green marker only. Each antibody was used in staining at […] concentration and histograms are indicated per antibody in this figure.
(§2) Human cell membrane receptor proteome arrays were performed at Retrogenix Ltd. Primary screens: 2 μg/ml of each antibody was screened for binding against fixed HEK293 cells/slides expressing 5528 human plasma membrane and tethered secreted proteins individually. […] Antibody binding was detected using AF647 fluorescent secondary anti-human IgG1 antibody. Primary hits (duplicate spots) were identified by analysing fluorescence (AF647 and ZsGreen1) on ImageQuant. Confirmation/specificity screens: Expression vectors encoding ZsGreen1 only, or ZsGreen1 and CD20, PD1, BTN2A1, or LSAMP were transfected into human HEK293 cells. […] Cells were washed, and incubated with the same AF647 anti-human IgG Fc detection antibody as used in the cell microarray screens. Cells were again washed, and analysed by flow cytometry using an Accuri flow cytometer (BD). A 7AAD live/dead dye was used to exclude dead cells, and ZsGreen1-positive cells (i.e. transfected cells) were selected for analyses.

[8] = target: T2, human BTN2A1, expressed on HEK293 cells; assay: flow cytometry on live transfected HEK293 cells
Experimental: as §1, §2

Binder | binding [1] | binding [2] | binding [3] | binding [4] | binding [5] | binding [6] | binding [7] | binding [8]
Clone 20C07, IgG1null format (antibody, V domains shown) VH: EVQLVESGGGLVQPGGSLRLSCAASGFSFTSYGMSWVRQAPGKGLEWLANIWQDGSTNYVDSVKGRFTISRDNAKNSLYLQMNSLRAEDTAVYYCARAYGNYWYIDRWGQGTTVTVSS VL: DIVMTQSPDSLAVSLGERATINCKSSQSVSNDVAWYQQKPGQPPKLLINYASHRFTGVPDRFSGSGYGTDFTLTISSLQAEDVAVYYCHQAYSTPYTFGQGTKLEIK | binds | binds | – | – | – | – | – | –
Clone 11C08, IgG1null format (antibody, V domains shown) VH: EVQLVESGGGLVQPGGSLRLSCAASGFTFSSYGVHWVRQAPGKGLEWVGVIWQDGSENYVDSVKGRFTISRDNAKNSLYLQMNSLRAEDTAVYYCARAYGNYWYIDRWGQGTTVTVSS VL: DIVMTQSPDSLAVSLGERATINCKSSQSVSNDLAWYQQKPGQPPKLLINYASHRFTGVPDRFSGSGYGTDFTLTISSLQAEDVAVYYCQQAYSTPYTFGQGTKLEIK | binds | binds | – | – | – | – | – | –
Clone 17A12, IgG1null format (antibody, V domains shown) VH: EVQLVESGGGLVQPGGSLRLSCAASGFSFSSYGMHWVRQAPGKGLEWLANIWQDGSENYVDSVKGRFTISRDNAKNSLYLQMNSLRAEDTAVYYCARAYGNYWYIDRWGQGTTVTVSS VL: DIVMTQSPDSLAVSLGERATINCKSSQSVSNDVAWYQQKPGQPPKLLINYASHRFTGVPDRFSGSGYGTDFTLTISSLQAEDVAVYYCQQAYSTPYTFGQGTKLEIK | binds | binds | – | – | – | – | – | –
Clone 17D08, IgG1null format (antibody, V domains shown) VH: EVQLVESGGGLVQPGGSLRLSCAASGFTLSSYGMHWVRQAPGKGLEWLAVIWADGSTNYVDSVKGRFTISRDNAKNSLYLQMNSLRAEDTAVYYCARAYGNYMYIDVWGQGTTVTVSS VL: DIVMTQSPDSLAVSLGERATINCKSSQSVSNDVAWYQQKPGQPPKLLINYASHRFTGVPDRFSGSGYGTDFTLTISSLQAEDVAVYYCHQAYSTPYTFGQGTKLEIK | binds | binds | – | – | – | – | – | –
Clone 17G08, IgG1null format (antibody, V domains shown) VH: EVQLVESGGGLVQPGGSLRLSCAASGFTFSSYGMHWVRQAPGKGLEWVGVIKQDGSENYVDSVKGRFTISRDNAKNSLYLQMNSLRAEDTAVYYCARAYGNYWYIDRWGQGTTVTVSS VL: DIVMTQSPDSLAVSLGERATINCKSSQSVSNDVAWYQQKPGQPPKLLINYASHRFTGVPDRFSGSGYGTDFTLTISSLQAEDVAVYYCHQAYSTPYTFGQGTKLEIK | binds | binds | – | – | – | – | – | –
Clone 15D07, IgG1null format (antibody, V domains shown) VH: EVQLVESGGGLVQPGGSLRLSCAASGFSFTSYGMHWVRQAPGKGLEWVGVIWQDGSTNYVDSVKGRFTISRDNAKNSLYLQMNSLRAEDTAVYYCARGYGNYWYIDVWGQGTTVTVSS VL: DIVMTQSPDSLAVSLGERATINCKSSQSVSNDLAWYQQKPGQPPKLLINYASHRFTGVPDRFSGSGYGTDFTLTISSLQAEDVAVYYCQQAYSTPYTFGQGTKLEIK | binds | binds | – | – | – | – | – | –
Antibody MH8, IgG1null format (antibody, V domains shown, Tested as IgG1null (human IgG1 L234A, L235A, G237A) with human Ckappa; also called clone MH8) VH: EVQLVESGGGLVQPGGSLRLSCAASGFTFSSYGMSWVRQAPGKGLEWVANIWQDGSTKYVDSVKGRFTISRDNAKNSLYLQMNSLRAEDTAVYYCARAYGNYWYIDRWGQGTTVTVSS VL: DIVMTQSPDSLAVSLGERATINCKSSQSVTNDVAWYQQKPGQPPKLLINYAYHRFTGVPDRFSGSGYGTDFTLTISSLQAEDVAVYYCHQAYSTPYTFGQGTKLEIK | binds | binds | binds | binds | binds | binds | – | –
Antibody MH4, IgG1null format (antibody, V domains shown, Tested as IgG1null (human IgG1 L234A, L235A, G237A) with human Ckappa; also called clone MH4) VH: EVQLVESGGGLVQPGGSLRLSCAASGFSLSSYGMSWVRQAPGKGLEWVAVIWQDGSTNYVDSVKGRFTISRDNAKNSLYLQMNSLRAEDTAVYYCARAYGNYWYIDRWGQGTTVTVSS VL: DIVMTQSPDSLAVSLGERATINCKSSQSVTNDVAWYQQKPGQPPKLLINYAYHRFTGVPDRFSGSGYGTDFTLTISSLQAEDVAVYYCHQAYSTPYTFGQGTKLEIK | binds | binds | binds | binds | – | – | no binding (tested: 2 ug/ml) | –
Antibody MH12, IgG1null format (antibody, V domains shown, Tested as IgG1null (human IgG1 L234A, L235A, G237A) with human Ckappa; also called clone MH12) VH: EVQLVESGGGLVQPGGSLRLSCAASGFTFSSYGMSWVRQAPGKGLEWVANIWQDGSEKYVDSVKGRFTISRDNAKNSLYLQMNSLRAEDTAVYYCARAYGNYWYIDRWGQGTTVTVSS VL: DIVMTQSPDSLAVSLGERATINCKSSQSVTNDVAWYQQKPGQPPKLLINYAYHRFTGVPDRFSGSGYGTDFTLTISSLQAEDVAVYYCHQAYSTPYTFGQGTKLEIK | binds | binds | binds | binds | binds | binds | – | no binding (tested: 2 ug/ml)
